Data taken from patent US8344100B2, “Poly-epitope peptide derived from thymidylate synthase having immunological and anti-tumour activity” (Universitá degli Studi di Siena, priority 2005, dated 2013).
Part of at least one peptide drawing is inferred or uncertain, most often the ends. Where a SMILES comes first, the peptide text is derived from it.

Experiments:
CIR-A2 target cells = assay: 51Cr release cytotoxicity test, CIR-A2 target cells loaded with peptide; format: cell-based, human
[1] = test system: HT-29 cells transfected with the HLA-A(*)02.01 gene; assay: 51Cr release cytotoxicity test of CTL lines against colon carcinoma cells HT-29; format: cell-based
Method: (§1) The lymphocyte lines generated in vitro using TS/PP were capable of destroying the target cells derived from colon carcinoma (the HT-29 and SW-1463 cell lines).
HLA-A (*)02.01 expression was induced by gene transfection on the membrane of HT29 target cells before every experiment. Specific lysis was calculated as follows: […]

SW-1463 cells = assay: 51Cr release cytotoxicity test of CTL lines against colon carcinoma cells SW-1463; format: cell-based
Source text: as §1

[2] = test system: CIR-A2 cells loaded with TS/PP; assay: CTL cold competition assay; format: cell-based, human
[3] = test system: EL-4/HHD autologous leukemic cells; assay: Tumour growth in HHD mice inoculated with EL-4/HHD cells; format: in vivo, transgenic (HHD) mice
Method: The results are given as the mean value ±SD of the maximum diameter.
In this study, six groups of five mice received different immunological treatments with or without chemotherapeutic treatment with 5-FU. The mice in groups A and B were administered a control peptide derived from the mumps virus (100 μg per mouse); the mice in groups C and D were administered a cocktail of the TS-1, TS-2 and TS-3 peptides (100 μg per mouse); and the mice in groups E and F were administered the TS/PP peptide (100 μg per mouse).
The mice received the first peptide administration subcutaneously at time 0, with recalls in the third and sixth week. Two weeks after the last administration, all animals were subcutaneously inoculated with 2×10^6 EL-4/HHD cells.
In order to evaluate the possible interaction between TS and the 5-FU treatment for vaccination purposes, seven days after the tumour cells inoculation, the mice in groups B, D and F underwent a chemotherapeutic treatment based on weekly intraperitoneal administration of 5-FU ([…]).

[4] = test system: TS/1-specific CTL precursors; assay: Dimer cytofluorimetry, peptide-specific CTL precursors TS/1; format: in vivo, transgenic (HHD) mice; conditions: spleen cells of treated mice
[5] = test system: TS/2-specific CTL precursors; assay: Dimer cytofluorimetry, peptide-specific CTL precursors TS/2; format: in vivo, transgenic (HHD) mice; conditions: spleen cells of treated mice
[6] = test system: TS/3-specific CTL precursors; assay: Dimer cytofluorimetry, peptide-specific CTL precursors TS/3; format: in vivo, transgenic (HHD) mice; conditions: spleen cells of treated mice
EL-4/HHD tumour tissue = assay: Anatomo-pathological study of tumour tissue from sacrificed animals; format: in vivo, transgenic (HHD) mice

Question: What does the source list for CC[C@H](C)[C@H](NC(=O)[C@H](CCSC)NC(=O)[C@@H](N)Cc1ccc(O)cc1)C(=O)N[C@@H](C)C(=O)N[C@@H](Cc1c[nH]cn1)C(=O)N[C@H](C(=O)N[C@H](C(=O)NCC(=O)N[C@@H](CC(C)C)C(=O)N[C@@H](Cc1ccccc1)C(=O)N[C@@H](CC(C)C)C(=O)N[C@@H](CC(=O)O)C(=O)N[C@@H](CO)C(=O)N[C@@H](CC(C)C)C(=O)NCC(=O)N[C@@H](Cc1ccccc1)C(=O)N[C@@H](CO)C(=O)N[C@H](C(=O)N[C@H](C(=O)N[C@@H](CC(C)C)C(=O)NCC(=O)N[C@@H](CC(=O)O)C(=O)N[C@@H](C)C(=O)N[C@@H](Cc1c[nH]cn1)C(=O)N[C@H](C(=O)N[C@@H](Cc1ccc(O)cc1)C(=O)N[C@@H](CC(C)C)C(=O)O)[C@@H](C)CC)[C@@H](C)O)[C@@H](C)O)[C@@H](C)O)[C@@H](C)CC [TS/PP] (H-YMIAHITGLFLDSLGFSTTLGDAHIYL-OH; N-terminus and C-terminus assumed)?
Answer: Lysis of CIR-A2 target cells exposed to the peptide by CTL lines T-TS-1, T-TS-2, T-TS-3 (CIR-A2 target cells; 25 μg/ml for 4 hours): capable of destroying the target cells exposed to TS/PP; Lysis by CTL lines generated using the peptide of CIR-A2 cells exposed to each of TS-1, TS-2, TS-3 (CIR-A2 target cells; targets pulsed with 25 μg/ml): capable of destroying CIR-A2 target cells individually exposed to each of the three known epitopes of TS; Lytic activity of CTL lines generated using the peptide ([1]; HT29 transfected with HLA-A(*)02.01 gene): capable of killing; Lysis compared with CTL lines generated using individual TS epitopes ([1]; HT-29): greater; Lysis compared with CTL lines generated using individual TS epitopes (SW-1463 cells): greater; Lytic activity of CTL lines generated using the peptide (SW-1463 cells): capable of killing; L/C ratio at which CTL-mediated lysis is completely abolished ([2]; cold competitor HT29 transfected with HLA-A(*)02.01): 1/5; L/C ratio at which CTL-mediated lysis is eliminated ([2]; cold competitor HT29 treated with 5-FU and transfected with HLA-A(*)02.01): 1/1; Neoplastic growth ([3]; peptide 100 μg per mouse s.c., without 5-FU): significantly delayed neoplastic growth; Mice with tumour mass totally absent ([3]; with 5-FU treatment): 3 out of 5; Neoplastic growth ([3]; with weekly intraperitoneal 5-FU): the majority of the mice were cured; Time after inoculation at which some mice started to develop a small tumor ([3]; without 5-FU): 35 to 40 days; TS/1-specific CTL precursors, CD8+/specific dimeric peptide+ [4]: 1.1 (±0.1)/ percentage; TS/1-specific CTL precursors, mean fluorescence per cell [4]: 9050; TS/2-specific CTL precursors, CD8+/specific dimeric peptide+ [5]: 1.5 (±0.3)/ percentage; TS/2-specific CTL precursors, mean fluorescence per cell [5]: 9050; TS/3-specific CTL precursors, CD8+/specific dimeric peptide+ [6]: 1.5 (±0.3)/ percentage; TS/3-specific CTL precursors, mean fluorescence per cell [6]: 7880; Hematoxylin and eosin staining (HES) of tumour tissue (EL-4/HHD tumour tissue; treated with 5-FU): agglomerates of small lymphocytes between the cells; large and diffuse pseudocystic areas throughout the neoplastic tissue; Immunostaining for TS (IS) of tumour tissue (EL-4/HHD tumour tissue; treated with 5-FU): Almost no TS-positive cells and many agglomerates of small lymphocytes surrounding the TS-negative areas; Hematoxylin and eosin staining (HES) of tumour tissue (EL-4/HHD tumour tissue; without 5-FU): diffuse pseudocystic areas throughout the neoplastic tissue; Immunostaining for TS (IS) of tumour tissue (EL-4/HHD tumour tissue; without 5-FU): Rare TS-positive cells and agglomerates of small lymphocytes surrounding the TS-negative areas and infiltrating the spaces between the remaining tumour cells; Lytic activity compared with CTL lines generated using individual TS epitopes (MDA-MB-231 cells): significantly greater; Lytic activity of CTL lines generated using the peptide (MDA-MB-231 cells): capable of killing
